# Data taken from publication PMC11042535.
# By UniProt entry, the sequences of proteins in these tests, tags left out.
# UniProt P52630: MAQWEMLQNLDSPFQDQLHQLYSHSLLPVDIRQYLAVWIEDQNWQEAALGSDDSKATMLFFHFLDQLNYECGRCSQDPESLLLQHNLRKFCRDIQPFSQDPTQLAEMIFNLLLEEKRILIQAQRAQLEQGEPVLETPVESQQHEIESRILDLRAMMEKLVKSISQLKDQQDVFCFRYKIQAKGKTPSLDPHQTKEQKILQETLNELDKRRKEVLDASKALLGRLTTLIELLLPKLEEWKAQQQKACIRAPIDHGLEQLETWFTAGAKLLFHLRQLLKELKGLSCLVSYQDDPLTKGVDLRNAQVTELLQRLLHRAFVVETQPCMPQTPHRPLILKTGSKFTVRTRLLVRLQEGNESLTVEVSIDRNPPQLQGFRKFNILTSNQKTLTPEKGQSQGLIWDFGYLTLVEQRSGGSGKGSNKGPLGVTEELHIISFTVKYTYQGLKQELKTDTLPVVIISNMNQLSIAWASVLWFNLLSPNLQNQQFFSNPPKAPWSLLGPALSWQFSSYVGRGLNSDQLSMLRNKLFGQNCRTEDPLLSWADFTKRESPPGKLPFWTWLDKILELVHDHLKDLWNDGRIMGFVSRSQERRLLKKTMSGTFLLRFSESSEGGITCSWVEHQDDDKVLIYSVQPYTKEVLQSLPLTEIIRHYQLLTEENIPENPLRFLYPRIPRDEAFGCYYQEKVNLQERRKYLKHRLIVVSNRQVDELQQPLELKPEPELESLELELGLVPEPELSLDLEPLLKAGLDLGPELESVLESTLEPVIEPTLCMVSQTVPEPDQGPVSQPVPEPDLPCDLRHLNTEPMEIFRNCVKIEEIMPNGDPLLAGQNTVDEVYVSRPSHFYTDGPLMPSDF
# Results are given in words; binding and its absence hold for the method and conditions named. Binding seen in cells or lysates may run through a third protein. These calls come from enrichment with a bait or labelling near it, and not all partners need be listed.
# Biological target: T1, nuclear factor kappa B subunit 2 (NFKB2) (human (endogenous in CRC tissues)) (UniProt Q00653)
# T1 sequence: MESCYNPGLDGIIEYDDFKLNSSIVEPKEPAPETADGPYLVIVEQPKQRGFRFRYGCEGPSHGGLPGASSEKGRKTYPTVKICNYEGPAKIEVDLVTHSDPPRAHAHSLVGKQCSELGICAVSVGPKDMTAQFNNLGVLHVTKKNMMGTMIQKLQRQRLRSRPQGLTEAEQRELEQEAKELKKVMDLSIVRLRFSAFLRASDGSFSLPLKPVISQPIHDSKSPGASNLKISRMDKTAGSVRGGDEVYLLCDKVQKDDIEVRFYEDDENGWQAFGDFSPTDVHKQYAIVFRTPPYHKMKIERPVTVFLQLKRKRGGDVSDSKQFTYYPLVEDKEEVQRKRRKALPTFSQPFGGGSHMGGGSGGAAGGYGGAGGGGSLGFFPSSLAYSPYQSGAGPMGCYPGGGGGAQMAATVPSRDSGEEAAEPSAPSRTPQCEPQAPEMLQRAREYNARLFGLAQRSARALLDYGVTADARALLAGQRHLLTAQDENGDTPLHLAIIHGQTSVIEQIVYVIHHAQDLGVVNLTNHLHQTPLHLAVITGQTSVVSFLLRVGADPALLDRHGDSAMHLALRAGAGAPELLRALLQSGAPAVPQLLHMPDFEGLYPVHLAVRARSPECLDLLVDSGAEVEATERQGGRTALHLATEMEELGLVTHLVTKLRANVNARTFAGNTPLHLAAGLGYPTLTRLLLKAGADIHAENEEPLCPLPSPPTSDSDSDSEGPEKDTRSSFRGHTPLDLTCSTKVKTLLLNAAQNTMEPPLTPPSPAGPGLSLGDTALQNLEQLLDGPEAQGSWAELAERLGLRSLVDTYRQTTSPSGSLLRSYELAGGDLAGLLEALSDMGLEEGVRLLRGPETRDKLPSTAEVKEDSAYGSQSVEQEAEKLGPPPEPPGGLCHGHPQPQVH
# Assay: affinity purification with mass spectrometry; immunoprecipitation of NFKB2 from CRC tissues followed by mass spectrometry
substance,measurement,value
signal transducer and activator of transcription 2 (STAT2) (from UniProt P52630 1-851),binding,binds
